# According to the RNAGym collection of RNA variant scans (doi:10.1126/science.aae0568):
# Variants at the floor of the assay are shown more often than the library holds them.
# B1: tRNA (parent)
# chain: GUUCCGUUGGCGUAAUGGUAACGCGUCUCCCUCCUAAGGAGAAGACUGCGGGUUCGAGUCCCGUACGGAACG
# Variants of: B1
# Assay: yeast fitness relative to wild type (ratio to wild type); higher = fitter; tRNA-Arg(CCU), competitive growth, 37 C, YPD
# Method in brief: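 A pool of Saccharomyces cerevisiae strains, each with a tRNA-Arg(CCU) gene variant at the native genomic locus, was competed in YPD at 37°C for 24 hours across six parallel replicates. The variants had been chemically synthesised at a 3% per-site mutation rate over 69 sites, and gene amplicons before and after competition were read by 100-nucleotide paired-end sequencing. Darwinian fitness relative to wild type rested on changes in genotype frequencies. Genotypes required ≥ 100 starting reads, and estimates < 0.5 were set to 0.5.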
row,Variant,yeast fitness
1,GUUCCGUUCGCGUAGUGGUAAGGCGUCUCCCUCCUAAGGAGAAGACUGCGGGUUCGAGUCCCGUACGGAACG [G9C A15G C22G],≤ 0.5
2,GUUCCGUUCGCGUAUUGGUAACGCGUCGCCCUCCUAAGGAGAAGACUGCGGGUCGGAGUCCCGUACGGUACG [G9C A15U U28G U54C C55G A69U],≤ 0.5
3,GUUCCGUUCGCGUAAUGGUCACGCGUCUCCCUCCUAAGGAGAAGACUGCGGGUUCGAGUCCCGUACGGAACG [G9C A20C],0.626
4,GUUCCGUUCGCGUAAUGGUGACGCGUCUCCCUCCUAAGGAGUACACUGCCGGUUCGAGUCCCGUACGGAACG [G9C A20G A42U G44C G50C],≤ 0.5
5,GUUCCGUUCGCGUAAUGGUACCGCGUCUUCCUCCUAAGGAGAAGACUGCGGGUUCGAGUCCCGUAUGGAACG [G9C A21C C29U C66U],≤ 0.5
6,GUUCCGUUCGCGUAAUGGUAUCGCGUUUCCCUCCUAAGGUGAAGACUGCGGGUUCGAGUCACGUACGAAACG [G9C A21U C27U A40U C61A G68A],≤ 0.5
7,GUUCCGUUCGCGUAAUGGUAACGCGUCUCCCUCCUUAGGAGAAGCCUGCGGAUUCGAGUCCCGUACGGAACG [G9C A36U A45C G52A],≤ 0.5
8,GUUCCGUUCGCGUAAUGGUAACGCGUCUCCCUCCUUAGGAGAAGAGUGCGGGUUCGAGUCCCGUACGGAACG [G9C A36U C46G],≤ 0.5
9,GUUCCGUUCGCGUAAUGGUAACGCGUCUCCCUCCUAAGGCGAAGACUGCGGGUUGGAGUCCCGUACGGAACG [G9C A40C C55G],≤ 0.5
10,GUUCCGUUCGCGUAAUGGUAACGCGUCUCCCUCCUAAGGAGACGAGUGCGGGUUCGAGUCCCGUACGGAACG [G9C A43C C46G],≤ 0.5
11,GUUCCGUUCGUGUAAUGGUAACGCGUCUCCCUCCUAAGGAGAAGACUCCGGGUUCGAGUCCGGUUCGGAACG [G9C C11U G48C C62G A65U],≤ 0.5
12,GUUCCGUUCGCGUAAUGGUAAAGCGUCUCCCUCAUAAGGAGAAGACUGCGGGUUCGAGUCCCGUACGGAGCG [G9C C22A C34A A70G],≤ 0.5
13,GUUCCGUUCGCGUAAUGGUAAGGCGUCUCCCUCCUAAGGAGUAGACUGCGGGUUCGAGUCCCGAACAGAACG [G9C C22G A42U U64A G67A],≤ 0.5
14,GUUCCGUUCGCGUAAUGGUAACGUGUCUCGCUCCUAAGGAGAAGACUGCGAGUUCGAGUCCCGUACGGAGCG [G9C C24U C30G G51A A70G],≤ 0.5
15,GUUCCGUUCGCGUAAUGGUAACGUGUCUCGCUCCUAAGGAGAAGACUGCGGGUUCGAGUCCCCUACGGAACG [G9C C24U C30G G63C],≤ 0.5
16,GUUCCGUUCGCGUAAUGGUAACGCGUUUCCCUCCUUAGGAGAAGACUGCGAGUUCGAGUCCCGUACGGAACG [G9C C27U A36U G51A],≤ 0.5
17,GUUCCGUUCGCGUAAUGGUAACGCGUUUCCCUGCUAAGGAGAAGACUGCAGGUUCGGGUCCCGUACGCAACG [G9C C27U C33G G50A A57G G68C],≤ 0.5
18,GUUCCGUUCGCGUAAUGGUAACGCGUCUGCCUCGUAAGGAGAAGACUGCGGGUUCGAGUCCAGUAUGGAACG [G9C C29G C34G C62A C66U],≤ 0.5
19,GUUCCGUUCGCGUAAUGGUAACGCGUCUUCCUCCUUAGGAGAAGACUGCGGGUUCGAGUCCCGUACGGAACG [G9C C29U A36U],≤ 0.5

row,Variant,yeast fitness
1,GUUCCGUUCGCGUAAUGGUAACGCGUCUCACUCCUAAGGAGAAGAAUCCGGGUUCGAGUCCCGUACGGAACG [G9C C30A C46A G48C],≤ 0.5
2,GUUCCGUUCGCGUAAUGGUAACGCGUCUCGCUCCUAAGGAGAAGACUGCGGGUUCGAGUCCCGUACGGCACG [G9C C30G A69C],≤ 0.5
3,GUUCCGUUCGCGUAAUGGUAACGCGUCUCUCUCCUAGGGAGAAGACUGCGGGUUGGAGUCCCGUACGGAACG [G9C C30U A37G C55G],≤ 0.5
4,GUUCCGUUCGCGUAAUGGUAACGCGUCUCCUUCCUAAGGAGAAGACUGCGGGUUCGCGUCCCGUACGGCACG [G9C C31U A57C A69C],≤ 0.5
5,GUUCCGUUCGCGUAAUGGUAACGCGUCUCCUUCCUAAGGAGAAGACAGCGGGUUCGCGUCCCGUACGGCACG [G9C C31U U47A A57C A69C],≤ 0.5
6,GUUCCGUUCGCGUAAUGGUAACGCGUCUCCCUCGUAAGGAGAAGACUGCAGGUUCGAGUCUCGUAUGGAACG [G9C C34G G50A C61U C66U],≤ 0.5
7,GUUCCGUUCGCGUAAUGGUAACGCGUCUCCCUCCUAAGGAGAAGAGUGCGGGUUCGAGUCCGGUACGGGACG [G9C C46G C62G A69G],≤ 0.5
8,GUUCCGUUCGCGUAAUGAUAAGGCGUCUUCCGCCUAAGGAGAAGACUGCGGGUUCGAGUCCCGUACGGAACG [G9C G18A C22G C29U U32G],≤ 0.5
9,GUUCCGUUCGCGUAAUGAUAACCCGUCUCCCUCCUAAGGAGAAGACUGCGGGUUCCAGUCCCGUACGGAACG [G9C G18A G23C G56C],≤ 0.5
10,GUUCCGUUCGCGUAAUGGUAACAAGUCUCCCUCCUAAGGAGAAGACUGCGGGUUAGAGUCCCGUACGGAACG [G9C G23A C24A C55A],≤ 0.5
11,GUUCCGUUCGCGUAAUGGUAACGCGUCUCCCUCCUAAGGAGAACACUGCGGGUUCGAGUCUCGUACGGAACG [G9C G44C C61U],0.584
12,GUUCCGUUCGCGUAAUGGUAACGCGUCUCCCUCCUAAGGAGAAGACUGCGGUUUCGAGUCCCGUACGGAACG [G9C G52U],0.502
13,GUUCCGUUCGCGAAAUGGUUACGCGUCUCCCUCAUAAGGAGAAGACUGCGGGUUCGAGACCCGUACGGAACG [G9C U13A A20U C34A U59A],≤ 0.5
14,GUUCCGUUCGCGUAAAGGUAUCGCGUCUCCCUCCUAAGGAGAAGACUGCGGGUUCGAGUCCCGUAUGGAACG [G9C U16A A21U C66U],≤ 0.5
15,GUUCCGUUCGCGUAAUGGCAACGCGUCUCCCUCCUAAGGAGAAGACUACGGGUUCGAGUCCCGCACGGAACG [G9C U19C G48A U64C],0.609
16,GUUCCGUUCGCGUAAUGGUAACGCGACUCCCUCCUAAGGAGAAGACCGUGGGUUCAAGUCCCGUACCGGACG [G9C U26A U47C C49U G56A G67C A69G],≤ 0.5
17,GUUCCGUUCGCGUAAUGGUAACGCGCCUCCCUCCUAAGGAGAAGACUGCGGGUGCGAGUCCCGUACGGAACG [G9C U26C U54G],≤ 0.5
18,GUUCCGUUCGCGUAAUGGUAACGCGUCUCCCUCCUAAGGAGAAGACCGCGGGUUCGAGUCCCGUACGGCACG [G9C U47C A69C],≤ 0.5
